The target in the assay is INI1/hSNF5 RPT1 (residues 184-258) (human) (UniProt Q12824). As to the kind of experiment: SEC-MALS + other: NMR; INI1 RPT1 alone; both purified.

No constants are given. Whether binding was seen depends on the method and setting.

B1: INI1/hSNF5 RPT1 (residues 184-258) (domain or fragment, human, UniProt Q12824 184-258, looked up)
chain: EVLVPIRLDMEIDGQKLRDAFTWNMNEKLMTPEMFSEILCDDLDLNPLTFVPAIASAIRQQIESYPTDSILEDQS
Turning to B1, the binding entry is on record as “no binding”.

Source of the values: paper PMC6398391 (The FEBS journal, 2018).
